Source: patent publication US20190218170A1, “BRANCHED TRIALKYLAMINE PRECURSORS, INTERMEDIATES, PRODUCTS MADE THEREFROM AND PROCESSES OF MANUFACTURE” (priority 2018, published 2019)

Legend:
[1] = Stain removal in cold water, brightness L*; conditions: Red lipstick; additive 0.05% active in wash solution of 12% LAE7 base formulation; 20° C.
Experimental: Amine oxides with linear and branched hydrophobes were compared in a screen for stain removal in cold water. Simple laundry liquid formulations were made that included only surfactants and builder.
Standard stain swatches were purchased from Testfabrics, Inc. (West Pittston, Pa.). STC/CFT PC-S-216 is diluted red lipstick on poly/cotton (65/35), and STC/CFT PC-S-132 is high discriminative sebum (synthetic) with pigment on poly/cotton, both made by Center for Testmaterials BV (CFT; The Netherlands). The swatches were pre-cut into 2 inch squares. The test formulation was diluted with DI water to 0.06% total surfactant to make the wash solution. Additives were added at a final concentration of 0.05% active in the wash solution. Stained fabric swatches were added to the wash solution, washed and rinsed at 20° C., and air-dried. The average swatch brightness (L*) for each treatment, and standard deviation, are reported for 3 replicates. […] All treatments are brighter than the untreated stain swatches. The nonionics NPE and LAE7 removed the lipstick and sebum stains to the same brightness.

[2] = Stain removal in cold water, brightness L*; conditions: Sebum; additive 0.05% active in wash solution of 12% LAE7 base formulation; 20° C.

## CCCCCCCCCCCC[N+](C)(C)[O-] [LAO, N,N-dimethyl laurylamine oxide, reference compound]
[1]
  avg L*: 74.8
[2]
  avg L*: 72.8
